Laboratory results published in US7737144B2, “Pyrimido[5,4-e][1,2,4]triazine-5-7-diones, processes for preparing them and their use” (Sanofi-Aventis Deutschland GmbH, priority 2003, dated 2010).
Structures were worked out from names or drawings and are uncertain.

Amino acid sequences for entries named in this document (tags omitted). Residues count along the entry.
UniProt P18031, 1-299 limits assumed: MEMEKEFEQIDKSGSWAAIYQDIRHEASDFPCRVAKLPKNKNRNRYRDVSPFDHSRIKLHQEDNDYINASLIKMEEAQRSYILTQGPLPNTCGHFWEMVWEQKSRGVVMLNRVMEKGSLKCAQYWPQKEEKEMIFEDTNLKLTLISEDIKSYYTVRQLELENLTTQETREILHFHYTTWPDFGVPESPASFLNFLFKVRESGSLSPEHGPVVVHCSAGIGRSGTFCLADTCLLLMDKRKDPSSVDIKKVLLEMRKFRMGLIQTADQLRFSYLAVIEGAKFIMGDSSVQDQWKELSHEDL

Target: recombinant human PTP1B (Homo sapiens, UniProt P18031)
Test: Inhibiting phosphotyrosine phosphatase 1B (PTP1B), in-vitro phosphatase assay
Format: biochemical
Settings: Table 2 Biological activity; substrate variant (phosphopeptide, p-nitrophenyl phosphate or DIFMUP) not stated
Description: Inhibiting Phosphotyrosine Phosphatase 1B (PTP1B)
The setting up and implementation of an in-vitro assay for detecting a phosphatase-inhibiting effect of the compounds according to the invention are described below. The isolation of the enzyme preparation and the implementation of the assay are described. […]
This assay is based on releasing phosphate from a consensus substrate peptide which is detected in the nanomolar concentration range using the malachite green/ammonium molybdate method (Lanzetta, P. A., Alvarez, L. J., Reinach, P. S., Candia, O. A. Anal Biochem. 100: 95-97, 1979) as adapted for the microtiter plate format. […] After incubating at 22° C. for 30 min, in order to develop the color, the absorption at 650 nm was determined using a microtiter plate reader (Molecular Devices). Samples and blanks were measured in triplicate. The PTP1B activity was calculated as nanomoles of phosphate released per min and mg of protein using potassium phosphate as the standard. The inhibition of the recombinant hPTP1B by test substances was calculated as percentages of the phosphatase control. […]

CCn1nc(-c2cccc(Oc3ccccc3)c2)nc2c(=O)n(C)c(=O)nc1-2 [6]
IC50: 440 nM
